The text below walks through data of the supplement of paper PMC9938546.

Structures can show the parent of a compound that is named as a salt. This is one part of the list. Part of the spread comes from offsets between plates or batches.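 HCT116-GFP, a KRAS-mutant, microsatellite-unstable human colorectal cancer line, constantly expresses green fluorescent protein; immune cells were from healthy donors. Cancer cell survival was tracked by live-cell imaging of green fluorescence, and activated immune cells by themselves reduced survival to roughly half.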

The test relates to HCT116-GFP. Description: HCT116-GFP viability (GFP intensity) relative to untreated HCT116-GFP monoculture control, co-culture with activated PBMCs; higher = less cancer cell killing. The conditions noted are these: culture: co-culture with anti-CD3/IL2 activated PBMCs 1:1; 10 µM; 72 h.
`Cn1c([N+](=O)[O-])cnc1COC(N)=O` [Ronidazole] registered an HCT116-GFP viability of 61.4%. The figure for `N[C@@H](C(=O)N[C@@H]1C(=O)N2C(C(=O)O)=C(Cl)CS[C@H]12)c1ccccc1` [Cefaclor hydrate] is 32.6%; for `COc1ccc(C(=O)NCc2ccc(OCCN(C)C)cc2)cc1OC` [Itopride] it is 67.2%. `CC(Oc1ccccc1)C(=O)N[C@@H]1C(=O)N2[C@@H]1SC(C)(C)[C@@H]2C(=O)O` (stereo partly specified) [Phenethicillin potassium salt]: the HCT116-GFP viability was 69.3%. The figure for `CO/N=C(\C(=O)N[C@@H]1C(=O)N2C(C(=O)O)=C(C[N+]3(C)CCCC3)CS[C@H]12)c1csc(N)n1` [Cefepime hydrochloride] is 33.9%; for `CCOC(=O)[C@H](CCc1ccccc1)N[C@@H](C)C(=O)N1CCC[C@H]1C(=O)O` [Enalapril maleate] it is 40.1%; for `CC(Oc1c(Cl)cccc1Cl)C1=NCCN1` (stereo unspecified) [Lofexidine] it is 25.7%. The result for `CC1=C(CC(=O)O)c2cc(F)ccc2/C1=C\c1ccc([S+](C)[O-])cc1` (stereo unspecified) [Sulindac] reads 42.6%; that for `CN(C)CCCO[C@@H]1[C@H]2OC(C)(C)O[C@H]2O[C@@H]1[C@H](O)CO` [Amiprilose hydrochloride], 68.6%. Regarding `C[C@]12CC[C@@H]3c4ccc(O)cc4CC[C@H]3[C@@H]1C[C@@H](O)[C@@H]2O` [Estriol], the HCT116-GFP viability was 36.8%. The result for `CC[N+](CC)(CC)CCC(O)(c1ccccc1)C1CCCCC1` (stereo unspecified) [Tridihexethyl chloride] reads 46.6%; that for `CCc1cccc2c3c([nH]c12)C(CC)(CC(=O)O)OCC3` (stereo unspecified) [Etodolac], 47.3%. The figure for `Cc1noc(NS(=O)(=O)c2ccc(N)cc2)c1C` [Sulfisoxazole] is 38.8%; for `C=CC1=C(C(=O)O)N2C(=O)[C@@H](NC(=O)/C(=N\OCC(=O)O)c3csc(N)n3)[C@H]2SC1` [Cefixime] it is 51.3%.

As to `OCCOCCN1CCN(C(c2ccccc2)c2ccc(Cl)cc2)CC1` (stereo unspecified) [Hydroxyzine dihydrochloride], the HCT116-GFP viability came to 38.2%.

`Cc1ccccc1N1C(=O)c2cc(S(N)(=O)=O)c(Cl)cc2NC1C` (stereo unspecified) [Metolazone] came in with an HCT116-GFP viability of 37.6%.

Regarding `Cc1cc(-n2c(=O)[nH]c(=O)n(C)c2=O)ccc1Oc1ccc(SC(F)(F)F)cc1` [Toltrazuril], the HCT116-GFP viability was 39.1%. The result for `COc1ccc2[nH]c([S+]([O-])Cc3ncc(C)c(OC)c3C)nc2c1` (stereo unspecified) [Omeprazole] reads 56.2%. For `CC(=O)Nc1ccc(O)cc1` [Acetaminophen], the HCT116-GFP viability came out at 60.9%. In the case of `COc1cc(C(=O)NC2CCCNC2)cc(OC)c1OC` (stereo unspecified) [Troxipide], the HCT116-GFP viability came to 48.6%. Consider `C[C@]12CC[C@@H]3c4ccc(O)cc4CC[C@H]3[C@@H]1CCC2=O` [Estrone], for which the HCT116-GFP viability stood at 68.4%.
